The test concerns the target NanoLuc (NLuc) luciferase-fused murine USP18 (mouse) (UniProt Q9WTV6). Kind of test: FRET or BRET; NanoBRET in HEK293T cells expressing NanoLuc-fused USP18 and HaloTag-fused ISG15 or STAT2; cells treated with increasing concentrations of BB07CA902 and BB06CA902 (up to 10 µM); p53-MDM2 as negative control pair.

Sequences of proteins named here, by UniProt entry; tags and fusion partners are left off. Residues count along the entry.
UniProt Q9WTV6: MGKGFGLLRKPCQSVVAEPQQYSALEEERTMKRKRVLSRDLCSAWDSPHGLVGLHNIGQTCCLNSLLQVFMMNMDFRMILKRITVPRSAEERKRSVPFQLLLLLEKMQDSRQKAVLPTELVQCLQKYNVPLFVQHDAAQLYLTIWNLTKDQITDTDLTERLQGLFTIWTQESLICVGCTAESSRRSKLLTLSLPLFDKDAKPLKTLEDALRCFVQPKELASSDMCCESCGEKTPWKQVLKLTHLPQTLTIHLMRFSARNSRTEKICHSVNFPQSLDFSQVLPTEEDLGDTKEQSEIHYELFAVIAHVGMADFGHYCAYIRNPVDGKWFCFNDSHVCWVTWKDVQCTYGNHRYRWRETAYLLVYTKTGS
UniProt P05161, residues 1-157: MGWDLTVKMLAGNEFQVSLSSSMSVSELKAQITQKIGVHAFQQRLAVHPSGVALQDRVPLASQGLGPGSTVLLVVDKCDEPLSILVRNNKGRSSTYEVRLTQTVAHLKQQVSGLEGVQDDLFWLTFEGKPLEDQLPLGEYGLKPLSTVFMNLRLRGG
UniProt P52630: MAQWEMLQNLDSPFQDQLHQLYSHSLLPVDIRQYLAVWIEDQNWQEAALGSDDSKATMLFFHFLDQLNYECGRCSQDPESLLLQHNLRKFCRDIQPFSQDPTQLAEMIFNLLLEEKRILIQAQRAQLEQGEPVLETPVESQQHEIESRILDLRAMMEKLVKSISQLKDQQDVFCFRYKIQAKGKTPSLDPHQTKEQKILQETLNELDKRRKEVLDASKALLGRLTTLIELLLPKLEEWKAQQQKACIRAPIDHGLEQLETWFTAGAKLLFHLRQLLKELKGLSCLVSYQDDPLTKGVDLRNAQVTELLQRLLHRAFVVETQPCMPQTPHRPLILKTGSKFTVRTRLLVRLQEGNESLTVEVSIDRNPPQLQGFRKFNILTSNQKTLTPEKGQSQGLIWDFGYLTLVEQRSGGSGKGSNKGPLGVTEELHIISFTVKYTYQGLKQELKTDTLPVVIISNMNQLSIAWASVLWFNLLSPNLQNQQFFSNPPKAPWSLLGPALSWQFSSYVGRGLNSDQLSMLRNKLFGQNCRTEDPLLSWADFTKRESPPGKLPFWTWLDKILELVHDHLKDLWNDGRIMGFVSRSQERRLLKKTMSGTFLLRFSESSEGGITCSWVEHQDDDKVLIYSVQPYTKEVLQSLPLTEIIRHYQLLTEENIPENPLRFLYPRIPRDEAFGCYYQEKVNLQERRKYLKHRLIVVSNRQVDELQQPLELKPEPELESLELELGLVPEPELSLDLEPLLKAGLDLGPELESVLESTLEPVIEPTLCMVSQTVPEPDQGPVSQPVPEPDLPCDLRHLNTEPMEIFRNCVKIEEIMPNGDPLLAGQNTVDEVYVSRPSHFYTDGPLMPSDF

Results are given in words; binding and its absence hold for the method and conditions named. In cells and extracts the contact can be indirect. Some results given as binding are weak or reduced against the parent protein; the word gives no strength.

Turning to “HaloTag-fused ISG15 (from UniProt P05161 1-157)”, the binding entry was “binds”.

Regarding “HaloTag-fused STAT2 (from UniProt P52630 1-851)”, the binding entry is “binds”.

The values above are taken from paper PMC12668310, “High‐Throughput Synthesis and Screening of a Cyanimide Library Identifies Selective Inhibitors of ISG15‐Specific Protease mUSP18” (Angewandte Chemie (International Ed. in English), 2025).
